PubChem BioAssay AID602196 | INSERM, 2012
Purpose: 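Knock-downs that protect lung cancer cells from cisplatin or sensitise them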. Cell system: human A549 lung cancer cells. Reagent: siRNA pair against human genes. Timing: 48 h transfection before cisplatin; time from cisplatin to read-out not stated. Treatment: cisplatin at a dose killing half of control-siRNA cells; exact dose and duration not given. Measured: 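Shift in cisplatin death relative to control siRNA, from -50 (all cells die) to +50 (no cells die); siRNAs harmful on their own scored 0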. Scale: two-siRNA summed score (-2 to +2): higher = both siRNAs protect from cisplatin killing; -2 means both sensitise. Rule for the call: 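Each siRNA scores 0 if harmful alone by LDH or WST-1, otherwise +1 if it reduces and -1 if it increases cisplatin killing; a gene is active when both siRNAs agree (sum +2 or -2)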. Calls: active = both siRNAs shift cisplatin killing the same way; inactive = no consistent shift, or siRNA harmful alone.
This is one part, drawn at random, of about 23,000 reagents tested. 455 of them (2%) count as active. 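Active includes both protection and sensitisation; some change values fall well beyond the stated -50 to +50 range.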 Unmarked entries are inactive. Not all columns of the deposit are shown. Not stated in the record: the amount of reagent.

gene | two-siRNA summed score (-2 to +2)
PPP1R14A (protein phosphatase 1 regulatory inhibitor subunit 14A) | 0
STX2 (syntaxin 2) | 1
CA2 (carbonic anhydrase 2) | 0
ITGB1BP1 (integrin subunit beta 1 binding protein 1) | 0
H1-0 (H1.0 linker histone) | 0
LOC400707 (retired record) | 0
PPP2R1B (protein phosphatase 2 scaffold subunit Abeta) | -1
ZNF479 (zinc finger protein 479) | 0
KLF16 (KLF transcription factor 16) | 0
IL22RA1 (interleukin 22 receptor subunit alpha 1) | 0
LOC440781 | 0
GIPC1 (GIPC PDZ domain containing family member 1) | 0
NOL4 (nucleolar protein 4) | 0
CDY1B (chromodomain Y-linked 1B) | 0
MRPL43 (mitochondrial ribosomal protein L43) | 2 (active)
ALDOB (aldolase, fructose-bisphosphate B) | -1
LOC440505 | 1
TACC3 (transforming acidic coiled-coil containing protein 3) | 0
TANC1 | 0
ST6GALNAC3 (ST6 N-acetylgalactosaminide alpha-2,6-sialyltransferase 3) | 1
FIS1 (fission, mitochondrial 1) | 0
KRTDAP (keratinocyte differentiation associated protein) | 1
RSKR (ribosomal protein S6 kinase related) | 0
MAPRE2 (microtubule associated protein RP/EB family member 2) | -1
MGC34774 | 0
SNRNP40 (small nuclear ribonucleoprotein U5 subunit 40) | 0
ENO3 (enolase 3) | 1
SQLE (squalene epoxidase) | 0
ADGRG7 (adhesion G protein-coupled receptor G7) | 0
APBA1 (amyloid beta precursor protein binding family A member 1) | -1
TTLL9 (tubulin tyrosine ligase like 9) | 0
NR0B2 (nuclear receptor subfamily 0 group B member 2) | 0
PCDHGB6 (protocadherin gamma subfamily B, 6) | 0
TMEM167B (transmembrane protein 167B) | 0
TRIM13 (tripartite motif containing 13) | 0
ZNF222 (zinc finger protein 222) | 1
CTBP1-DT (CTBP1 divergent transcript) | 1
MXRA7 (matrix remodeling associated 7) | 0
GPR174 (G protein-coupled receptor 174) | 2 (active)
PUF60 (poly(U) binding splicing factor 60) | 0
LOC389223 | 1
FBXO33 (F-box protein 33) | 1
RSPH1 (radial spoke head component 1) | 0
LOC388639 | -1

Continued (5 carried over from the part before).
gene | two-siRNA summed score (-2 to +2)
PUF60 (poly(U) binding splicing factor 60) | 0
LOC389223 | 1
FBXO33 (F-box protein 33) | 1
RSPH1 (radial spoke head component 1) | 0
LOC388639 | -1
ALKBH4 (alkB homolog 4, lysine demethylase) | 0
OR52I2 (olfactory receptor family 52 subfamily I member 2) | 0
ZNHIT2 (zinc finger HIT-type containing 2) | 1
LOC387869 | 0
PIP4K2A (phosphatidylinositol-5-phosphate 4-kinase type 2 alpha) | 1
TYMS (thymidylate synthetase) | 0
CCDC89 (coiled-coil domain containing 89) | 0
SFTPC (surfactant protein C) | 0
LOC402604 | 0
CYP4V2 (cytochrome P450 family 4 subfamily V member 2) | -1
P2RY12 (purinergic receptor P2Y12) | 0
C6orf136 (chromosome 6 open reading frame 136) | 0
HRG (histidine rich glycoprotein) | 0
FLJ36760 | 0
MOB1B (MOB kinase activator 1B) | 0
H4C1 (H4 clustered histone 1) | 0
AGBL2 (AGBL carboxypeptidase 2) | 0
PTAR1 (protein prenyltransferase alpha subunit repeat containing 1) | 0
SOD2 (superoxide dismutase 2) | 0
CTC1 (CST telomere replication complex component 1) | 0
EIF4G3 (eukaryotic translation initiation factor 4 gamma 3) | 0
LOC392862 | 0
FABP7 (fatty acid binding protein 7) | 0
LOC402578 | 0
LOC388439 | 0
TRAPPC5 (trafficking protein particle complex subunit 5) | 0
ATP6V1A (ATPase H+ transporting V1 subunit A) | 0
UQCRB (ubiquinol-cytochrome c reductase binding protein) | 0
SERPINA6 (serpin family A member 6) | 0
